Values joined by “and” are separate entries in the source; they are usually repeats but may differ in a detail not shown here. Identical values can stand only once. Some of the results follow. The main result of the screen is listed elsewhere. These columns were measured beside it and carry no call. Most of these compounds were active or inconclusive in the main read-out, so they are no random draw. Potencies come from curve fits of mixed quality, noted in brackets.
experiment: Cell signaling CRE-BLA (Fsk stim); details: CHO CRE-bla reporter (cAMP response element driving beta-lactamase), forskolin EC10, beta-lactamase ratio; measured here: 460 nm blue channel
Procedure, shortened: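 Reporter-gene assay: CHO cells with beta-lactamase behind cAMP responsive elements, co-treated with compound and EC10 NKH 477 for 3 hours at 37 degrees Celsius. Activity came from the 460/530 nm CCF4 emission ratio.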

| Structure (SMILES) | AC50 |
| --- | --- |
| COc1ccc(-c2nc3cnc(Oc4ccccc4)nc3n(CCC#N)c2=O)cc1 | 2 µM [rising, full curve] |
| CCCCNc1cc(NC(C)=O)cc2cc(OC)c(OC)cc12 | 12.6 µM [rising, partial curve] |
| Cc1cc(C)c2cc(C#N)c(SCC(=O)NCc3ccco3)nc2c1 | 12.6 µM [falling, single point] |
| COc1cccc(C(=O)NCCn2ccc3ccccc32)c1 | 10 µM [rising, single point] |
| CCCc1nc2scc(-c3ccccc3)c2c(=O)n1N | 7.94 µM [rising, partial curve] |
| CCOC(=O)C1CCN(C(=O)c2cnn3c(C)cc(C)nc23)CC1 | 0.1 µM [falling, full curve] |
| COc1cc(C2C3=C(CC(C)(C)CC3=O)Nc3c2c(=O)[nH]c(=O)n3Cc2ccccc2)ccc1O (configuration not stated) | 10 µM [rising, single point] and 12.6 µM [rising, single point] |
| OCCSc1ncnc2c1oc1ccccc12 | 12.6 µM [rising, partial curve] |
| CN1CCc2c(sc3c2C(=O)NC(c2ccc4c(c2)OCO4)N3)C1 (configuration not stated) | 2 µM [rising, full curve] |
| Cn1c(CCNC(=O)c2ccco2)nc2cc(NC(=O)c3ccco3)ccc21 | 0.0316 µM [falling, full curve, poor fit] |
| COc1ccc(OC)c2c(N3CCN(C)CC3)cc(C(F)(F)F)nc12 | 10 µM [rising, partial curve] |
| CC1(C)Cc2ccccc2C(=NCCCC(=O)O)N1 | 0.0316 µM [rising, partial curve, poor fit] |
| CC(=O)NCCNc1nc(-c2ccc3c(c2)OCO3)nc2ccccc12 | 12.6 µM [rising, partial curve] |
| Cc1nc2cnc(N3CCOCC3)nc2n(Cc2ccc(F)cc2)c1=O | 3.98 µM [rising, single point] |
| CCOc1ccccc1C(=O)NCC(=O)OCC(=O)c1ccc2c(c1)OCCO2 | 15.8 µM [rising, partial curve] |
| COc1ccccc1N(CC(=O)Nc1cccnc1)S(C)(=O)=O | 3.98 µM [falling, partial curve] |
| COCCn1c(=O)c(-c2ccc(F)cc2)nc2cnc(Nc3cccc(OC)c3)nc21 | 3.98 µM [rising, partial curve] |
| Cc1sc(NC(=O)CSc2nnc(-c3ccc(F)cc3)o2)c(C#N)c1C | 7.94 µM [rising, single point] |
| O=C(CCN1C(=O)C2C3C=CC(C3)C2C1=O)NCc1cccnc1 (configuration not stated) | 0.794 µM [falling, full curve, poor fit] |
| Cc1onc(-c2ccccc2Cl)c1C(=O)Nc1ccc(-c2nnc3n2CCCCC3)cc1 | 0.00794 µM [falling, full curve, poor fit] |
| CS(=O)(=O)N1CCC2(CCN(c3ccncc3)CC2)CC1 | 5.01 µM [falling, single point] |
| COc1c(Br)cc(Br)cc1C(=O)O | 0.126 µM [falling, partial curve, poor fit] |
| O=C(CNC(=O)c1cc2ccccc2o1)NCc1cccs1 | 25.1 µM [rising, single point] |

| Structure (SMILES) | AC50 |
| --- | --- |
| COc1cc(C2NC(=O)NC(O)(C(F)(F)F)C2C(=O)c2ccc(Cl)cc2)ccc1O (configuration not stated) | 12.6 µM [rising, partial curve, poor fit] |
| COCCn1c(CCC(=O)O)nc2c1c(=O)[nH]c(=O)n2CC(C)C | 0.126 µM [falling, single point] |
| CCO/C=N/c1c(C#N)c(CC#N)nn1-c1ccccc1 | 0.398 µM [rising, full curve] |
| COCCn1c(SCC(=O)Nc2ncc(C)s2)nc2sc3c(c2c1=O)CCC3 | 10 µM [rising, partial curve] |
| COCCNc1nc(-c2ccc(C(=O)N(C)C)cc2)nc2ccccc12 | 10 µM [rising, partial curve] |
| COc1cc2nncc(SCc3ccc(Cl)c(Cl)c3)c2cc1OC | 0.794 µM [rising, partial curve] |
| CCc1nnc(NC(=O)CSc2nnc(-c3cc4ccccc4cc3O)n2CCOC)s1 | 25.1 µM [falling, single point] |
| N#Cc1ccsc1NC(=O)c1cnccn1 | 0.501 µM [falling, full curve] |
| Cc1cc(NS(=O)(=O)c2ccc(NC(=O)c3cnc4scc(C)n4c3=O)cc2)nc(C)n1 | 12.6 µM [rising, single point] |
| CCN1CCN(C(=O)c2nn(-c3ccc(C)cc3)c(=O)c3c2c2ccccc2n3C)CC1 | 0.1 µM [falling, single point] |
| CSC1=Nc2sc3c(c2C2=NCCN12)CCCC3 | 10 µM [rising, partial curve] |
| COc1cc(C)c(C(C)C)cc1S(=O)(=O)NCCCn1ccnc1 | 0.398 µM [falling, partial curve, poor fit] |
| O=C(CSc1nc(-c2ccco2)cc(C(F)(F)F)n1)N1CCc2ccccc2C1 | 10 µM [rising, partial curve] |
| O=C(CSc1n[nH]c(=O)n1C1CC1)Nc1cc(Cl)ccc1Oc1ccccc1 | 25.1 µM [falling, single point] |
| O=c1[nH]c(SCCOc2ccccc2)nc2ccccc12 | 20 µM [rising, single point] |
| Nc1c(C(=O)c2cccs2)oc2ccccc12 | 10 µM [rising, partial curve] |
| CCc1nc(NC(C)C)c2oc3ccccc3c2n1 | 0.398 µM [rising, full curve] |
| O=C(CCS(=O)(=O)c1cccc2nonc12)Nc1cccc2c1CCCC2 | 0.126 µM [falling, full curve, poor fit] |
| Nc1c(S(=O)(=O)c2cccs2)c2nc3ccccc3nc2n1Cc1cccs1 | 12.6 µM [rising, partial curve] |
| Cn1c(C(=O)NCc2cccs2)cc2c(=O)n(C)c3ccccc3c21 | 0.398 µM [rising, full curve, poor fit] |
| CCOC(=O)c1cc(-c2ccncc2)nc2c1c(C)nn2C | 6.31 µM [rising, partial curve] |
| Cn1c(=O)[nH]c(=O)c2c1nc(N1CCCCCC1)n2Cc1cccc2ccccc12 | 12.6 µM [rising, single point] |
| O=C(CN1CCN(Cc2ccccc2)CC1)c1ccc(Br)cc1 | 12.6 µM [rising, single point] |

| Structure (SMILES) | AC50 |
| --- | --- |
| CC(=O)Nc1ccc(Nc2nc(C)nc3c2oc2ccccc23)cc1 | 3.16 µM [rising, single point] |
| C=C1C[C@@]23C[C@]1(O)CC[C@@H]2[C@]12C=C[C@@H](O)[C@@](C)(C(=O)O1)[C@@H]2[C@@H]3C(=O)O | 31.6 µM [falling, single point] |
| CC(C)COC(=O)N1CC(O)CC1C(=O)O (configuration not stated) | 25.1 µM [falling, single point] |
| CC[C@H]1C2=C3C(CC[C@H]4C(OCc5ccc(F)cc5C(F)(F)F)OC[C@](C)([C@@H]34)N(C(=O)OC(C)(C)C)C2)C(COC(C)=O)C1COC(C)=O (some centres not stated) | 5.01 µM [rising, full curve, poor fit] |
| O=C(Cc1cc(=O)oc2cc(O)ccc12)NCC1CCC(C(=O)O)CC1 (configuration not stated) | 10 µM [rising, partial curve] |
| CCOC(=O)CCC(=O)Nc1ccc(S(=O)(=O)N2CCCC2)cc1 | 25.1 µM [falling, single point] |
| Cc1ccc(C(=O)OCc2nnc(-c3ccccc3)o2)o1 | 0.126 µM [falling, full curve, poor fit] |
| COc1cc(C)c(Cl)c(C)c1S(=O)(=O)NCc1ccc2c(c1)OCO2 | 12.6 µM [falling, partial curve, poor fit] |
| Cc1cccc(N2CCN(C(=O)C3CCCCC3)CC2)c1C | 12.6 µM [falling, partial curve] |
| COc1cccc(C2=CC(c3ccc(OC)c(OC)c3OC)n3nnnc3N2)c1 (configuration not stated) | 10 µM [rising, partial curve] |
| CS(=O)(=O)Nc1cccc(-c2nc(NCc3cccs3)c3ccccc3n2)c1 | 3.16 µM [rising, partial curve] |
| CC(=O)c1c(C)nc2ccccc2c1N | 25.1 µM [rising, single point] |
| Cc1ccc(NC(=O)C2CCN(S(=O)(=O)c3cnc[nH]3)CC2)nc1 | 5.01 µM [falling, single point] |
| CCCCNC(=O)CC(NS(=O)(=O)c1ccc(C)cc1)c1ccco1 (configuration not stated) | 10 µM [falling, partial curve] |
| COC(=O)CN(C#N)c1nc(OC)nc(N(C)C)n1 | 20 µM [rising, partial curve] |
| CNc1ncnc2ccc(-c3cccc(OC)c3)cc12 | 5.01 µM [rising, full curve, poor fit] |
| CC(=O)Nc1nonc1NC(=O)CSc1nc2ccccc2o1 | 2 µM [rising, partial curve] |
| O=C(OCCn1cncn1)c1cc2ccccc2oc1=O | 0.251 µM [falling, full curve] |
| Cc1cc(C)c(/C=C2/C(=O)Nc3ccccc32)[nH]1 | 10 µM [falling, full curve, poor fit] |
| CC1CN(c2nn3c(=O)c4ccccc4nc3c3ccccc23)CC(C)O1 (configuration not stated) | 5.01 µM [rising, partial curve] |
| CC(C)c1nc(SCC(=O)Nc2cccc(C(F)(F)F)c2)c2c(=O)n(C)c(=O)n(C)c2n1 | 2.51 µM [rising, full curve] |
